According to US12171232B1, “N-[(4,6-dimethylpyrimidin-2-yl)carbamothioyl] pyridine-3-carboxamide as an eco-friendly insecticidal agent against Spodoptera littoralis (boisd.)” (KING FAISAL UNIVERSITY, priority 2023, dated 2024):

Test system: Spodoptera littoralis
Assay: Insecticidal bioassay screening (castor leaf dip) on larvae of the laboratory strain of cotton leafworm
Assay type: in vivo
Conditions: after 72 hrs of treatment, slope of LDP line
Description: Five concentrations (200, 100, 50, 25, 12.5 ppm) were designed for this synthetic compound and the reference Diflubenzuron compound as the dynamic ingredients based on ppm via diluting the commercial formulation.
In this experiment, castor leaves are immersed in each of the previously prepared concentrations of the components for 10 seconds and then left to dry for 60 minutes. Larvae of the second and fourth instars of each checked strain are prepared with treated leaves in gauze-covered glass containers for 72 hrs. An untreated control is made in which leaves are dipped in triton x-100 and distilled water only. Then the preserved leaves were removed & fresh, untreated leaves were provided for 72 hours. Three replicates (10 larvae each) were checked for each concentration. Daily inspection was carried out for all treatments and mortality percentages were recorded 3 days (72 hours) after treatment. The average mortality percentage was corrected employing Abbott's formula. The corrected mortality rate for each of the previously synthesized compounds is statistically calculated according to Finney (1970). Through this rate, the corresponding concentration test lines (LDP lines) are assessed.

SMILES: Cc1cc(C)nc(NC(=S)NC(=O)c2cccnc2)n1 [Compound 2, N-[(4,6-Dimethylpyrimidin-2-yl)carbamothioyl]pyridine-3-carboxamide]
- Slope (2nd instar larvae): 1.24 ± 0.36
- Slope (4th instar larvae): 1.26 ± 0.36
